{"source": "PubChem BioAssay AID743121, NCATS, 2013", "assay": "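Knock-downs that sensitise breast cancer cells to camptothecin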 (primary screen)", "cell system": "MDA-MB-231 cells, a human breast cancer line", "reagent": "single siRNA against human genes, 20 nM siRNA (0.8 pmol per well)", "duration": "120 h (drug added 48 h after transfection, read 72 h later)", "challenge": "camptothecin 20 nM (about EC30) for 72 h; vehicle 0.1% DMSO in parallel plates", "detection": "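Cell viability by ATP luminescence (CellTiter-Glo) as % of non-targeting siRNA wells, and the log2 ratio of viability without drug over viability with camptothecin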", "direction": "log2 vehicle/camptothecin viability: higher = stronger sensitisation to camptothecin", "active means": "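Each gene scored by redundant siRNA activity (RSA) over its individual siRNA ratios; a gene is called active at p < 0.001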", "note": "The whole screen tested about 26,000 reagents; below is a part drawn at random. Over the whole deposit, 167 (0.63%) were called active. 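Calls are per gene from RSA p-values that are not deposited; an individual active-marked siRNA can sensitise only weakly.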 Unmarked entries are inactive. Reagents against one gene are numbered here. Further read-outs or replicates are left out here."}
{"Gene": "SHPRH", "siRNA no.": 1, "log2 vehicle/camptothecin viability": -0.113}
{"Gene": "SHPRH", "siRNA no.": 2, "log2 vehicle/camptothecin viability": 0.0792}
{"Gene": "SHPRH", "siRNA no.": 3, "log2 vehicle/camptothecin viability": -0.204}
{"Gene": "SHPRH", "siRNA no.": 4, "log2 vehicle/camptothecin viability": -0.153}
{"Gene": "TRAPPC2", "siRNA no.": 1, "log2 vehicle/camptothecin viability": -0.387}
{"Gene": "TRAPPC2", "siRNA no.": 2, "log2 vehicle/camptothecin viability": -0.123}
{"Gene": "TRAPPC2", "siRNA no.": 3, "log2 vehicle/camptothecin viability": -0.547}
{"Gene": "TRAPPC2", "siRNA no.": 4, "log2 vehicle/camptothecin viability": 0.426}
{"Gene": "CALCA", "siRNA no.": 1, "log2 vehicle/camptothecin viability": -0.317}
{"Gene": "CALCA", "siRNA no.": 2, "log2 vehicle/camptothecin viability": 0.358}
{"Gene": "CALCA", "siRNA no.": 3, "log2 vehicle/camptothecin viability": -0.302}
{"Gene": "CALCA", "siRNA no.": 4, "log2 vehicle/camptothecin viability": -0.068}
{"Gene": "CALCA", "siRNA no.": 5, "log2 vehicle/camptothecin viability": -0.191}
{"Gene": "CALCA", "siRNA no.": 6, "log2 vehicle/camptothecin viability": -0.468}
{"Gene": "CALCA", "siRNA no.": 7, "log2 vehicle/camptothecin viability": -0.261}
{"Gene": "CALCA", "siRNA no.": 8, "log2 vehicle/camptothecin viability": 0.184}
{"Gene": "DYNC1H1", "siRNA no.": 1, "log2 vehicle/camptothecin viability": 0.0417}
{"Gene": "DYNC1H1", "siRNA no.": 2, "log2 vehicle/camptothecin viability": -0.222}
{"Gene": "DYNC1H1", "siRNA no.": 3, "log2 vehicle/camptothecin viability": -0.576}
{"Gene": "DYNC1H1", "siRNA no.": 4, "log2 vehicle/camptothecin viability": -0.363}

Continued; the last 2 above are carried over.
{"Gene": "DYNC1H1", "siRNA no.": 3, "log2 vehicle/camptothecin viability": -0.576}
{"Gene": "DYNC1H1", "siRNA no.": 4, "log2 vehicle/camptothecin viability": -0.363}
{"Gene": "DHCR24", "siRNA no.": 1, "log2 vehicle/camptothecin viability": -0.26}
{"Gene": "DHCR24", "siRNA no.": 2, "log2 vehicle/camptothecin viability": 0.164}
{"Gene": "DHCR24", "siRNA no.": 3, "log2 vehicle/camptothecin viability": 0.0608}
{"Gene": "DHCR24", "siRNA no.": 4, "log2 vehicle/camptothecin viability": 0.185}
{"Gene": "ZNF467", "siRNA no.": 1, "log2 vehicle/camptothecin viability": -0.0578}
{"Gene": "ZNF467", "siRNA no.": 2, "log2 vehicle/camptothecin viability": 0.309}
{"Gene": "ZNF467", "siRNA no.": 3, "log2 vehicle/camptothecin viability": -0.295}
{"Gene": "ZNF467", "siRNA no.": 4, "log2 vehicle/camptothecin viability": -0.399}
{"Gene": "CBLC", "siRNA no.": 1, "log2 vehicle/camptothecin viability": 0.209}
{"Gene": "CBLC", "siRNA no.": 2, "log2 vehicle/camptothecin viability": 0.0153}
{"Gene": "CBX4", "siRNA no.": 1, "log2 vehicle/camptothecin viability": -0.609}
{"Gene": "CBX4", "siRNA no.": 2, "log2 vehicle/camptothecin viability": -0.411}
{"Gene": "CBX4", "siRNA no.": 3, "log2 vehicle/camptothecin viability": -0.463}
{"Gene": "ALOXE3", "siRNA no.": 1, "log2 vehicle/camptothecin viability": 0.556}
{"Gene": "ALOXE3", "siRNA no.": 2, "log2 vehicle/camptothecin viability": -0.167}
{"Gene": "ALOXE3", "siRNA no.": 3, "log2 vehicle/camptothecin viability": -0.323}
{"Gene": "ALOXE3", "siRNA no.": 4, "log2 vehicle/camptothecin viability": 0.0288}
{"Gene": "FKBP8", "siRNA no.": 1, "log2 vehicle/camptothecin viability": -0.342}
{"Gene": "FKBP8", "siRNA no.": 2, "log2 vehicle/camptothecin viability": -0.282}
{"Gene": "FKBP8", "siRNA no.": 3, "log2 vehicle/camptothecin viability": -0.0289}
{"Gene": "FKBP8", "siRNA no.": 4, "log2 vehicle/camptothecin viability": -0.243}
{"Gene": "UBL4A", "siRNA no.": 1, "log2 vehicle/camptothecin viability": -0.7}
{"Gene": "UBL4A", "siRNA no.": 2, "log2 vehicle/camptothecin viability": -0.336}
{"Gene": "UBL4A", "siRNA no.": 3, "log2 vehicle/camptothecin viability": -0.113}
{"Gene": "UBL4A", "siRNA no.": 4, "log2 vehicle/camptothecin viability": -0.0376}
